# Measured data: PubChem BioAssay AID1259405 (NCATS, 2018)
# Purpose: 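Knock-downs that lift recombinant protein yield in hamster ovary cells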 (primary screen)
# Cells: Chinese hamster CHO-K1 ovary cells with stable secreted eGFP expression
# Knock-down reagent: single siRNA against mouse genes, 0.8 pmol siRNA per well (2 µl of 400 nM stock)
# Duration: 3 days
# Measurement: 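Per-well intracellular GFP measured by laser scanning cytometry, plus viability from ATP luminescence, each relative to plate median of non-targeting control wells, in %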
# Direction: GFP, % of control: higher = more GFP per well, higher productivity; viability (ATP), % of control: higher = more viable cells (more ATP)
# Hit rule: 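a knock-down is called active if GFP reaches 120% or more of non-targeting control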
# This is one part, drawn at random, of about 50,000 deposited reagents. About 4,000 of them (8%) count as active. 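Mouse siRNA library applied to hamster cells; one well for each siRNA.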
target,PubChem SID,"GFP, % of control","viability (ATP), % of control",Outcome
1700084P21Rik (GeneID 73498),SID363543483,90.3,83.8,inactive
1700084P21Rik (GeneID 73498),SID363552976,137,113,active
1700084P21Rik (GeneID 73498),SID363558824,71.3,63.8,inactive
A030005L19Rik (GeneID 77922),SID363542867,71.8,50.7,inactive
A030005L19Rik (GeneID 77922),SID363546384,47.4,39.1,inactive
A030005L19Rik (GeneID 77922),SID363548140,67.8,96.4,inactive
Commd5 (GeneID 66398),SID363550320,50.5,78.8,inactive
Commd5 (GeneID 66398),SID363564829,69.5,75.4,inactive
Commd5 (GeneID 66398),SID363588374,93.1,95.6,inactive
Ppp1r2-ps9 (GeneID 67395),SID363547873,78.8,79.5,inactive
Ppp1r2-ps9 (GeneID 67395),SID363558642,87.5,84.8,inactive
Ppp1r2-ps9 (GeneID 67395),SID363560400,70.9,86.5,inactive
Sgtb (GeneID 218544),SID363553709,75.8,71.3,inactive
Sgtb (GeneID 218544),SID363561666,82.6,73.8,inactive
Sgtb (GeneID 218544),SID363565404,66.8,80,inactive
Dhx30 (GeneID 72831),SID363545637,104,116,inactive
Dhx30 (GeneID 72831),SID363549150,97.6,77.1,inactive
Dhx30 (GeneID 72831),SID363562956,78.9,54.5,inactive
Hes2 (GeneID 15206),SID363555208,84.3,66,inactive
Hes2 (GeneID 15206),SID363563869,75,73.5,inactive
Hes2 (GeneID 15206),SID363587415,76.9,62.8,inactive
Zfp617 (GeneID 170938),SID363541017,29.8,28.7,inactive
Zfp617 (GeneID 170938),SID363555644,81.7,71.9,inactive
Zfp617 (GeneID 170938),SID363565933,70.6,89.2,inactive
Mia2 (GeneID 338320),SID363541318,54.8,48,inactive
Mia2 (GeneID 338320),SID363555945,31.3,54.8,inactive
Mia2 (GeneID 338320),SID363562310,76.6,68.8,inactive
Mia2 (GeneID 338320),SID363566234,35.3,52.8,inactive
Mia2 (GeneID 338320),SID363567448,76.1,96.3,inactive
Mia2 (GeneID 338320),SID363584805,85.4,81.9,inactive
Plpp1 (GeneID 19012),SID363547562,69.8,51.2,inactive
Plpp1 (GeneID 19012),SID363558331,61,63,inactive
Plpp1 (GeneID 19012),SID363560089,99.9,74.5,inactive
Cebpb (GeneID 12608),SID363573274,90,45.1,inactive
Cebpb (GeneID 12608),SID363588513,108,72.4,inactive
Fzd8 (GeneID 14370),SID363581852,53.1,70.5,inactive
Fzd8 (GeneID 14370),SID363589346,126,84.3,active
Thtpa (GeneID 105663),SID363556249,64.3,58.8,inactive
Thtpa (GeneID 105663),SID363586699,114,115,inactive
Thtpa (GeneID 105663),SID363588807,89.7,69.3,inactive
Spata2l (GeneID 78779),SID363544018,57.7,70.6,inactive
Spata2l (GeneID 78779),SID363551754,77.4,72.4,inactive
Spata2l (GeneID 78779),SID363559359,81.8,81,inactive
Rbm7 (GeneID 67010),SID363569128,98.5,96.3,inactive
Rbm7 (GeneID 67010),SID363583560,78.8,85.3,inactive
Defb22 (GeneID 442835),SID363542816,86.7,57.3,inactive
Defb22 (GeneID 442835),SID363546333,127,107,active
Defb22 (GeneID 442835),SID363548089,80.8,83.7,inactive
Fbxw15 (GeneID 382105),SID363540348,75.8,70,inactive
Fbxw15 (GeneID 382105),SID363542100,74.1,52.9,inactive
Fbxw15 (GeneID 382105),SID363567016,72.1,94.3,inactive
Il16 (GeneID 16170),SID363541474,64.7,41.4,inactive
Il16 (GeneID 16170),SID363556101,36.9,48.8,inactive
Il16 (GeneID 16170),SID363566390,139,35.2,active
Gm5094 (GeneID 328839),SID363542917,43.5,45.9,inactive
Gm5094 (GeneID 328839),SID363546434,67.3,59.4,inactive
Gm5094 (GeneID 328839),SID363548190,80.5,77.5,inactive
Arf4 (GeneID 11843),SID363570475,67,82.3,inactive
Arf4 (GeneID 11843),SID363579275,82.9,109,inactive
Arf4 (GeneID 11843),SID363583147,72,93.9,inactive
Itga9 (GeneID 104099),SID363573477,75.4,68.1,inactive
Itga9 (GeneID 104099),SID363588716,66.1,72.8,inactive
Polh (GeneID 80905),SID363569011,148,113,active
Polh (GeneID 80905),SID363583443,68.6,76,inactive
Abcb6 (GeneID 74104),SID363574625,88.7,95.5,inactive
Abcb6 (GeneID 74104),SID363575681,70.7,74.7,inactive
Abcb6 (GeneID 74104),SID363580257,93.1,73,inactive
Vsig2 (GeneID 57276),SID363555467,69.9,90.8,inactive
Vsig2 (GeneID 57276),SID363564128,59.5,78.9,inactive
Vsig2 (GeneID 57276),SID363587674,65.6,101,inactive
Notch3 (GeneID 18131),SID363572800,124,86.8,active
Notch3 (GeneID 18131),SID363578080,130,85.2,active
Notch3 (GeneID 18131),SID363582304,93.1,61.8,inactive
Sdha (GeneID 66945),SID363574959,42.1,48.3,inactive
Sdha (GeneID 66945),SID363580591,64.3,48.9,inactive
Sdha (GeneID 66945),SID363582703,80.8,95.8,inactive
Suco (GeneID 226551),SID363546518,88.9,44.3,inactive
Suco (GeneID 226551),SID363548274,50.6,66.5,inactive
Suco (GeneID 226551),SID363560452,48.4,54,inactive
Spice1 (GeneID 212514),SID363539699,61.9,96.6,inactive
Spice1 (GeneID 212514),SID363561000,86.7,27,inactive
Spice1 (GeneID 212514),SID363565090,58.4,67,inactive
Numa1 (GeneID 101706),SID363562386,39.6,38.9,inactive
Numa1 (GeneID 101706),SID363567524,41.3,51.4,inactive
Numa1 (GeneID 101706),SID363584881,74.3,62.4,inactive

Records listed so far with an active call, once more:
target,PubChem SID,"GFP, % of control","viability (ATP), % of control",Outcome
1700084P21Rik (GeneID 73498),SID363552976,137,113,active
Fzd8 (GeneID 14370),SID363589346,126,84.3,active
Defb22 (GeneID 442835),SID363546333,127,107,active
Il16 (GeneID 16170),SID363566390,139,35.2,active
Polh (GeneID 80905),SID363569011,148,113,active
Notch3 (GeneID 18131),SID363572800,124,86.8,active
Notch3 (GeneID 18131),SID363578080,130,85.2,active
